# Reference: patent US12215133B2 (BrightGene Bio-Medical Technology Co., Ltd., priority 2021, dated 2025)
# Test system: db/db mice
# Experiment: Inhibitory effect of BG128 on hyperglycemia in db/db mice (Experimental Example 3)
# Type: in vivo
# Conditions: anticoagulated whole blood, end of experiment, Mean ± SEM
# Procedure: 55 6-8 week-old SPF-grade male db/db mice were purchased from Zhejiang Vital River Experimental Animal Technology Co., Ltd.
# According to the dosage regimen in Table 7, a certain amount of Tirzepatide and BG128 were weighed and the vehicle (pH=7.0, 20 mM sodium citrate buffer) was added to formulated to the corresponding concentration. The formulation was performed once every 7 days, and the formulated mixture was sub-packaged and stored at 2° C.-8° C. in the dark.
# Before the administration, according to the body weight and fasting blood glucose, the animals were grouped into: db/db-ND group, Tirzepatide—0.15 mg/kg group, BG128—0.05 mg/kg group, BG128—0.15 mg/kg group and BG128—0.5 mg/kg group, and each group have 11 animals; and see Table 7 for details.
# The day of the first administration was recorded as d1, and the time was recorded by analogy; Tirzepatide and BG128 were administered once every three days, and the time points were d1, d4, d7, d10, d13, d16, d19, d22, d25 and d28, a total of 10 administrations; and see Table 7 for details. […]
# The food intake of the animals was recorded starting at three days before the grouping for administration until the end of the experiment. […]
# 2) Fasting blood glucose: the determination dates were respectively d-1 (before grouping), d7, d13, d19, d25 and d31. The animals were fasted for 6 hours, and the fasting blood glucose was determined before administration.
# 3 days after the last administration, the animals were weighed and fasted for 6 hours, and the fasting blood glucose of the animals was determined; after anesthesia, a portion of non-anticoagulated whole blood was collected through the orbital venous plexus, stood at room temperature for 30 minutes, and centrifuged at 5000 rpm for 5 minutes, the serum was separated and frozen at −80° C. for the determination of serum insulin content; a portion of anticoagulated whole blood was collected for the determination of HbA1c content. The serum insulin was determined by Elisa method.
# The data was organized in Excel 2017 and Prism6.0, and the data was expressed as Mean±SEM (standard error). […]
smiles,measurement,setting,value
CNC(CCCCNC(=O)COCCOCCOCCNC(=O)COCCOCCOCCNC(=O)CCC(NC(=O)CC(=O)O)C(=O)O)C(N)=O (stereo not drawn) [BG128],Hb,0.05 mg/kg s.c. once every three days,128.10 ± 5.30
same,Hb,0.15 mg/kg s.c. once every three days,131.60 ± 1.23
same,Hb,0.5 mg/kg s.c. once every three days,140.80 ± 2.02
